In assay [1] the target is T1, Flag-RIG-I (retinoic acid-inducible gene I, wild type) (UniProt O95786).
T1 sequence: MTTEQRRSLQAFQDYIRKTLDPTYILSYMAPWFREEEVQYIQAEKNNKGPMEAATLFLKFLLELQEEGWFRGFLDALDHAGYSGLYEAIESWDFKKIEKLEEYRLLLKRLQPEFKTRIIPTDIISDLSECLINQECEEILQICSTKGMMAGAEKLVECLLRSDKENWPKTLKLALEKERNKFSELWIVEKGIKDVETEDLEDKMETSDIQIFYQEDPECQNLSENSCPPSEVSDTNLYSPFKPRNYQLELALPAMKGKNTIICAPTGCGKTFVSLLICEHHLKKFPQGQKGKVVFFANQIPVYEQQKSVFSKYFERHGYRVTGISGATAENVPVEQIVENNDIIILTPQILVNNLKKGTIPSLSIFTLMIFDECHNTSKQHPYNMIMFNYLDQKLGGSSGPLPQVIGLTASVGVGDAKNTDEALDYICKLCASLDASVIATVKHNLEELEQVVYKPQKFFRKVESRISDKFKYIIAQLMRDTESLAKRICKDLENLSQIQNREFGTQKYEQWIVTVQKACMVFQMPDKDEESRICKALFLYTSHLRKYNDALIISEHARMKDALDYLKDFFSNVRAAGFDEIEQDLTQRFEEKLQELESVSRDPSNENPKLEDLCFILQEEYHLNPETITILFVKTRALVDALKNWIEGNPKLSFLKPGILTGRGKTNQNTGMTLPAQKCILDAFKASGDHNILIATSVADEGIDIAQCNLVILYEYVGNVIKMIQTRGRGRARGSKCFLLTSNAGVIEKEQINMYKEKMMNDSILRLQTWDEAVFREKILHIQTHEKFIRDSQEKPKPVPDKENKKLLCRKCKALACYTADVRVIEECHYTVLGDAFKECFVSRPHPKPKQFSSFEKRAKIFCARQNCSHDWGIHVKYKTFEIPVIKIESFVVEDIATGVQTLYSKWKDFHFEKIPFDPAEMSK
Kind of assay: co-IP; HEK293T cells co-transfected; lysis buffer 50 mM Tris-HCl pH 7.4, 150 mM NaCl, 10% glycerol, 1% Nonidet P-40, 0.1% SDS, 2 mM Na2EDTA; lysates immunoprecipitated with anti-Flag antibody (overnight, 4 °C, Protein A+G agarose), immunoblotted with anti-HA antibody.

For a further assay, the target named is T2, HA-RIG-I (UniProt O95786).
T2 sequence: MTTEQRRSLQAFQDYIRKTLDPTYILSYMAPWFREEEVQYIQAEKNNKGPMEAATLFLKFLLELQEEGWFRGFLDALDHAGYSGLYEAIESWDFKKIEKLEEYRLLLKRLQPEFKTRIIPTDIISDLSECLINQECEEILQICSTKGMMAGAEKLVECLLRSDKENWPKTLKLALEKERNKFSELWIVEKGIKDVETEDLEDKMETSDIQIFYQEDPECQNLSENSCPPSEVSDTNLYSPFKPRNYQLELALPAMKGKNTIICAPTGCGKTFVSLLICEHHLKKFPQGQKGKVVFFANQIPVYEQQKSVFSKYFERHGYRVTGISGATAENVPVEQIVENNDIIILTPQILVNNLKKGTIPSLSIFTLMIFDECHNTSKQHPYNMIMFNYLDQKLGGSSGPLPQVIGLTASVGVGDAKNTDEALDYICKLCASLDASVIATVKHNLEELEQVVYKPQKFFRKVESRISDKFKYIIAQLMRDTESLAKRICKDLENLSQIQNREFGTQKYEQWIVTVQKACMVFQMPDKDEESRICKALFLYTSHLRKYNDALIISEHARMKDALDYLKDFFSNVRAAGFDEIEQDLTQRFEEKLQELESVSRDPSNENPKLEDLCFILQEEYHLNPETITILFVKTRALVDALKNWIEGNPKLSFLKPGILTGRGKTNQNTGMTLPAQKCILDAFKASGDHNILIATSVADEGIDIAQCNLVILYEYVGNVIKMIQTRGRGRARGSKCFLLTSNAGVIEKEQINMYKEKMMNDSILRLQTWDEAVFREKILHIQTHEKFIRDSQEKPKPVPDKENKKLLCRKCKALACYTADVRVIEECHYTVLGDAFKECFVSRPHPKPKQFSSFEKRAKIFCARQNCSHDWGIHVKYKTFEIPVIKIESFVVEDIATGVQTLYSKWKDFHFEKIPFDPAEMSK
Kind of assay: co-IP; HEK293T cells co-transfected with HA-RIG-I, Flag-IPS-1 and increasing amounts of Myc-USP15 or its mutants, infected with SEV 24 h later; lysates immunoprecipitated with anti-HA antibody, immunoblotted with anti-Flag and anti-Myc antibodies.

This is an account of results in publication PMC4650652.

No constants are given. Whether binding was seen depends on the method and setting. In cells and extracts the contact can be indirect. Some entries that bind do so weakly or less than the wild type. Where a sequence is shown, tags or fusion partners need not be part of it.

B1: HA-USP15-WT (ubiquitin-specific protease 15, wild type) (enzyme, UniProt Q9Y4E8-2 1-952)
chain: MAEGGAADLDTQRSDIATLLKTSLRKGDTWYLVDSRWFKQWKKYVGFDSWDKYQMGDQNVYPGPIDNSGLLKDGDAQSLKEHLIDELDYILLPTEGWNKLVSWYTLMEGQEPIARKVVEQGMFVKHCKVEVYLTELKLCENGNMNNVVTRRFSKADTIDTIEKEIRKIFSIPDEKETRLWNKYMSNTFEPLNKPDSTIQDAGLYQGQVLVIEQKNEDGTWPRGPSTPNVKNSNYCLPSYTAYKNYDYSEPGRNNEQPGLCGLSNLGNTCFMNSAIQCLSNTPPLTEYFLNDKYQEELNFDNPLGMRGEIAKSYAELIKQMWSGKFSYVTPRAFKTQVGRFAPQFSGYQQQDCQELLAFLLDGLHEDLNRIRKKPYIQLKDADGRPDKVVAEEAWENHLKRNDSIIVDIFHGLFKSTLVCPECAKISVTFDPFCYLTLPLPMKKERTLEVYLVRMDPLTKPMQYKVVVPKIGNILDLCTALSALSGIPADKMIVTDIYNHRFHRIFAMDENLSSIMERDDIYVFEININRTEDTEHVIIPVCLREKFRHSSYTHHTGSSLFGQPFLMAVPRNNTEDKLYNLLLLRMCRYVKISTETEETEGSLHCCKDQNINGNGPNGIHEEGSPSEMETDEPDDESSQDQELPSENENSQSEDSVGGDNDSENGLCTEDTCKGQLTGHKKRLFTFQFNNLGNTDINYIKDDTRHIRFDDRQLRLDERSFLALDWDPDLKKRYFDENAAEDFEKHESVEYKPPKKPFVKLKDCIELFTTKEKLGAEDPWYCPNCKEHQQATKKLDLWSLPPVLVVHLKRFSYSRYMRDKLDTLVDFPINDLDMSEFLINPNAGPCRYNLIAVSNHYGGMGGGHYTAFAKNKDDGKWYYFDDSSVSTASEDQIVSKAAYVLFYQRQDTFSGTGFFPLDRETKGASAATGIPLESDEDSNDNDNDIENENCMHTN
As to B1, the binding result in assay [1] is given as “binds”.

B2: Myc-USP15-H862A (enzyme, UniProt Q9Y4E8-2 1-952)
chain: MAEGGAADLDTQRSDIATLLKTSLRKGDTWYLVDSRWFKQWKKYVGFDSWDKYQMGDQNVYPGPIDNSGLLKDGDAQSLKEHLIDELDYILLPTEGWNKLVSWYTLMEGQEPIARKVVEQGMFVKHCKVEVYLTELKLCENGNMNNVVTRRFSKADTIDTIEKEIRKIFSIPDEKETRLWNKYMSNTFEPLNKPDSTIQDAGLYQGQVLVIEQKNEDGTWPRGPSTPNVKNSNYCLPSYTAYKNYDYSEPGRNNEQPGLCGLSNLGNTCFMNSAIQCLSNTPPLTEYFLNDKYQEELNFDNPLGMRGEIAKSYAELIKQMWSGKFSYVTPRAFKTQVGRFAPQFSGYQQQDCQELLAFLLDGLHEDLNRIRKKPYIQLKDADGRPDKVVAEEAWENHLKRNDSIIVDIFHGLFKSTLVCPECAKISVTFDPFCYLTLPLPMKKERTLEVYLVRMDPLTKPMQYKVVVPKIGNILDLCTALSALSGIPADKMIVTDIYNHRFHRIFAMDENLSSIMERDDIYVFEININRTEDTEHVIIPVCLREKFRHSSYTHHTGSSLFGQPFLMAVPRNNTEDKLYNLLLLRMCRYVKISTETEETEGSLHCCKDQNINGNGPNGIHEEGSPSEMETDEPDDESSQDQELPSENENSQSEDSVGGDNDSENGLCTEDTCKGQLTGHKKRLFTFQFNNLGNTDINYIKDDTRHIRFDDRQLRLDERSFLALDWDPDLKKRYFDENAAEDFEKHESVEYKPPKKPFVKLKDCIELFTTKEKLGAEDPWYCPNCKEHQQATKKLDLWSLPPVLVVHLKRFSYSRYMRDKLDTLVDFPINDLDMSEFLINPNAGPCRYNLIAVSNHYGGMGGGAYTAFAKNKDDGKWYYFDDSSVSTASEDQIVSKAAYVLFYQRQDTFSGTGFFPLDRETKGASAATGIPLESDEDSNDNDNDIENENCMHTN
Regarding B2, the binding entry with HA-RIG-I was “binds”.

B3: HA-USP15-H862A (enzyme, UniProt Q9Y4E8-2 1-952)
chain: MAEGGAADLDTQRSDIATLLKTSLRKGDTWYLVDSRWFKQWKKYVGFDSWDKYQMGDQNVYPGPIDNSGLLKDGDAQSLKEHLIDELDYILLPTEGWNKLVSWYTLMEGQEPIARKVVEQGMFVKHCKVEVYLTELKLCENGNMNNVVTRRFSKADTIDTIEKEIRKIFSIPDEKETRLWNKYMSNTFEPLNKPDSTIQDAGLYQGQVLVIEQKNEDGTWPRGPSTPNVKNSNYCLPSYTAYKNYDYSEPGRNNEQPGLCGLSNLGNTCFMNSAIQCLSNTPPLTEYFLNDKYQEELNFDNPLGMRGEIAKSYAELIKQMWSGKFSYVTPRAFKTQVGRFAPQFSGYQQQDCQELLAFLLDGLHEDLNRIRKKPYIQLKDADGRPDKVVAEEAWENHLKRNDSIIVDIFHGLFKSTLVCPECAKISVTFDPFCYLTLPLPMKKERTLEVYLVRMDPLTKPMQYKVVVPKIGNILDLCTALSALSGIPADKMIVTDIYNHRFHRIFAMDENLSSIMERDDIYVFEININRTEDTEHVIIPVCLREKFRHSSYTHHTGSSLFGQPFLMAVPRNNTEDKLYNLLLLRMCRYVKISTETEETEGSLHCCKDQNINGNGPNGIHEEGSPSEMETDEPDDESSQDQELPSENENSQSEDSVGGDNDSENGLCTEDTCKGQLTGHKKRLFTFQFNNLGNTDINYIKDDTRHIRFDDRQLRLDERSFLALDWDPDLKKRYFDENAAEDFEKHESVEYKPPKKPFVKLKDCIELFTTKEKLGAEDPWYCPNCKEHQQATKKLDLWSLPPVLVVHLKRFSYSRYMRDKLDTLVDFPINDLDMSEFLINPNAGPCRYNLIAVSNHYGGMGGGAYTAFAKNKDDGKWYYFDDSSVSTASEDQIVSKAAYVLFYQRQDTFSGTGFFPLDRETKGASAATGIPLESDEDSNDNDNDIENENCMHTN
Regarding B3, the binding entry in assay [1] is listed as “binds”.

B4: Myc-USP15-C269A (enzyme, UniProt Q9Y4E8-2 1-952)
chain: MAEGGAADLDTQRSDIATLLKTSLRKGDTWYLVDSRWFKQWKKYVGFDSWDKYQMGDQNVYPGPIDNSGLLKDGDAQSLKEHLIDELDYILLPTEGWNKLVSWYTLMEGQEPIARKVVEQGMFVKHCKVEVYLTELKLCENGNMNNVVTRRFSKADTIDTIEKEIRKIFSIPDEKETRLWNKYMSNTFEPLNKPDSTIQDAGLYQGQVLVIEQKNEDGTWPRGPSTPNVKNSNYCLPSYTAYKNYDYSEPGRNNEQPGLCGLSNLGNTAFMNSAIQCLSNTPPLTEYFLNDKYQEELNFDNPLGMRGEIAKSYAELIKQMWSGKFSYVTPRAFKTQVGRFAPQFSGYQQQDCQELLAFLLDGLHEDLNRIRKKPYIQLKDADGRPDKVVAEEAWENHLKRNDSIIVDIFHGLFKSTLVCPECAKISVTFDPFCYLTLPLPMKKERTLEVYLVRMDPLTKPMQYKVVVPKIGNILDLCTALSALSGIPADKMIVTDIYNHRFHRIFAMDENLSSIMERDDIYVFEININRTEDTEHVIIPVCLREKFRHSSYTHHTGSSLFGQPFLMAVPRNNTEDKLYNLLLLRMCRYVKISTETEETEGSLHCCKDQNINGNGPNGIHEEGSPSEMETDEPDDESSQDQELPSENENSQSEDSVGGDNDSENGLCTEDTCKGQLTGHKKRLFTFQFNNLGNTDINYIKDDTRHIRFDDRQLRLDERSFLALDWDPDLKKRYFDENAAEDFEKHESVEYKPPKKPFVKLKDCIELFTTKEKLGAEDPWYCPNCKEHQQATKKLDLWSLPPVLVVHLKRFSYSRYMRDKLDTLVDFPINDLDMSEFLINPNAGPCRYNLIAVSNHYGGMGGGHYTAFAKNKDDGKWYYFDDSSVSTASEDQIVSKAAYVLFYQRQDTFSGTGFFPLDRETKGASAATGIPLESDEDSNDNDNDIENENCMHTN
B4: the binding result with HA-RIG-I was “binds”.

B5: HA-USP15-C269A (enzyme, UniProt Q9Y4E8-2 1-952)
chain: MAEGGAADLDTQRSDIATLLKTSLRKGDTWYLVDSRWFKQWKKYVGFDSWDKYQMGDQNVYPGPIDNSGLLKDGDAQSLKEHLIDELDYILLPTEGWNKLVSWYTLMEGQEPIARKVVEQGMFVKHCKVEVYLTELKLCENGNMNNVVTRRFSKADTIDTIEKEIRKIFSIPDEKETRLWNKYMSNTFEPLNKPDSTIQDAGLYQGQVLVIEQKNEDGTWPRGPSTPNVKNSNYCLPSYTAYKNYDYSEPGRNNEQPGLCGLSNLGNTAFMNSAIQCLSNTPPLTEYFLNDKYQEELNFDNPLGMRGEIAKSYAELIKQMWSGKFSYVTPRAFKTQVGRFAPQFSGYQQQDCQELLAFLLDGLHEDLNRIRKKPYIQLKDADGRPDKVVAEEAWENHLKRNDSIIVDIFHGLFKSTLVCPECAKISVTFDPFCYLTLPLPMKKERTLEVYLVRMDPLTKPMQYKVVVPKIGNILDLCTALSALSGIPADKMIVTDIYNHRFHRIFAMDENLSSIMERDDIYVFEININRTEDTEHVIIPVCLREKFRHSSYTHHTGSSLFGQPFLMAVPRNNTEDKLYNLLLLRMCRYVKISTETEETEGSLHCCKDQNINGNGPNGIHEEGSPSEMETDEPDDESSQDQELPSENENSQSEDSVGGDNDSENGLCTEDTCKGQLTGHKKRLFTFQFNNLGNTDINYIKDDTRHIRFDDRQLRLDERSFLALDWDPDLKKRYFDENAAEDFEKHESVEYKPPKKPFVKLKDCIELFTTKEKLGAEDPWYCPNCKEHQQATKKLDLWSLPPVLVVHLKRFSYSRYMRDKLDTLVDFPINDLDMSEFLINPNAGPCRYNLIAVSNHYGGMGGGHYTAFAKNKDDGKWYYFDDSSVSTASEDQIVSKAAYVLFYQRQDTFSGTGFFPLDRETKGASAATGIPLESDEDSNDNDNDIENENCMHTN
With B5, the binding result in assay [1] is “binds”.
